Measurements from publication PMC5407808.

Tested on: T1, HexA-6His (Photorhabdus luminescens TT01)
T1 sequence (looked up): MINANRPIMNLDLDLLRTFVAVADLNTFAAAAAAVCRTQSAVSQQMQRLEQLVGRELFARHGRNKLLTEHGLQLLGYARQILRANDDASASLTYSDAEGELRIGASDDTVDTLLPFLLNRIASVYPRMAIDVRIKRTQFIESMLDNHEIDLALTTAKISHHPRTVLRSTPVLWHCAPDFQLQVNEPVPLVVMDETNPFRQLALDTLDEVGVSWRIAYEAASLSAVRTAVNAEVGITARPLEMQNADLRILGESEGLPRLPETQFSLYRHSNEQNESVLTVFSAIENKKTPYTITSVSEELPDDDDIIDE
Assay: SPR
Settings: 1:1 fit, but not true 1:1 and no saturation up to 2000 nM, ka 1300 /M*s, kd 0.002 /s, no ligand added; 5' biotin on forward primer (PpcfA-Btn_fwd; position implied); SPR (Biacore T200, streptavidin chip, ~300 RU DNA): HBS-EP+ 10 mM HEPES pH 7.4, 150 mM NaCl, 3 mM EDTA, 0.05% Surfactant P20, 25 C, 30 ul/min; recombinant protein; residues 1-309; label: biotin; probe letters rebuilt from the primers and the genome

TATTTGTCTTTATAATGATAATTTATTTTATATGATTTCACATAAGAATGTTTAATAATATCAATATATATCCTTATTATTAAATAATAATATCAAAAATTTATATGGGATTTTATTGATATAACTGTCAGAGTTGACAGTAGACTTTTAAGTGTAATTTTATAATTATAATTTTTGTTAATTAACCCTTGTGTGAGAACACAAATGAATGCGCTTATTGTTAATAGGTATGAGTTTATTCTCCATAGTTATTGGTAAATTGAATGGTTTCATTAATAAATTAATAGGTATATTAGATGTTTAATTGATTTATTTATTTGTTAATAAAAATACCTTGTCATCATTATATGTTCTTCATATTAACCTAGACATAAGGGATAAAGCTGGT (double strand) [PpcfA promoter fragment (400 bp)]
Kd: 1.3 µM

Tags and fusion partners may be left off the protein sequences shown.
